Experimental data: PubChem BioAssay AID1224830 (NIAID, 2016)
Shown is one part, drawn at random, of about 18,000 reagents. Of all reagents, about 2,900 (16%) got an active call. 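Calls are made per well; low scores hint the gene aids the LPS response, high scores that it dampens it.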 Repeated entries: four replicate wells of each siRNA pool. No sequences are given here.

Screen: 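Regulators of TLR4 signalling towards TNF-alpha in macrophage-like cells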 (primary screen)
System: human THP-1 monocytic leukaemia cells, TNF dual-luciferase reporter clone, PMA-differentiated to macrophage-like cells
Reagents: siRNA pool against human genes, 50 nM
Time to read-out: LPS for 4 h, given about 3 days after siRNA transfection
Treatment: bacterial LPS (TLR4 ligand), 10 ng/ml
Read-out: 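Ratio of firefly to renilla light, scaled to the plate median and expressed as a robust z-score per replicate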
Reading the numbers: TNF reporter robust z-score: higher = stronger TNF reporter response to LPS
Hit rule: 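Each well counts as active if its z-score is over 2.8 or under -1.5; controls are left without a call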

| target gene | TNF reporter robust z-score | outcome |
| --- | --- | --- |
| TRPS1 | -1.51 | active |
| TRPS1 | -1.37 | inactive |
| TRPS1 | -1.02 | inactive |
| TRPS1 | -0.78 | inactive |
| SRD5A3 | -0.7 | inactive |
| SRD5A3 | -0.23 | inactive |
| SRD5A3 | -0.38 | inactive |
| SRD5A3 | 0.12 | inactive |
| CEP70 | 2.89 | active |
| CEP70 | 2.09 | inactive |
| CEP70 | 1.26 | inactive |
| CEP70 | -0.53 | inactive |
| TSN | -0.65 | inactive |
| TSN | -0.92 | inactive |
| TSN | 0.34 | inactive |
| TSN | -0.41 | inactive |
| RAB15 | 0.35 | inactive |
| RAB15 | 0.85 | inactive |
| RAB15 | 1.22 | inactive |
| RAB15 | 1.3 | inactive |
| PSMB9 | -0.91 | inactive |
| PSMB9 | -0.33 | inactive |
| PSMB9 | -0.98 | inactive |
| PSMB9 | 0.4 | inactive |
| HCN3 | 0.57 | inactive |
| HCN3 | 1.38 | inactive |
| HCN3 | 0.12 | inactive |
| HCN3 | -0.49 | inactive |
| BCDIN3D | 0.03 | inactive |
| BCDIN3D | -0.17 | inactive |
| BCDIN3D | -0.59 | inactive |
| BCDIN3D | 1.24 | inactive |
| ARHGAP20 | -1.28 | inactive |
| ARHGAP20 | -1.03 | inactive |
| ARHGAP20 | -1.04 | inactive |
| ARHGAP20 | -0.89 | inactive |
| WDR77 | -0.9 | inactive |
| WDR77 | -1.02 | inactive |
| WDR77 | -0.33 | inactive |
| WDR77 | -0.52 | inactive |
| LCE3D | -0.29 | inactive |
| LCE3D | 0.91 | inactive |
| LCE3D | -0.74 | inactive |
| LCE3D | -0.04 | inactive |
| TUBA1A | -1.54 | active |
| TUBA1A | -1.06 | inactive |
| TUBA1A | -1.19 | inactive |
| TUBA1A | 0.4 | inactive |
| TSC22D3 | -0.27 | inactive |
| TSC22D3 | -0.9 | inactive |
| TSC22D3 | -0.31 | inactive |
| TSC22D3 | -0.51 | inactive |
| CLEC4E | -0.04 | inactive |
| CLEC4E | -0.33 | inactive |
| CLEC4E | -0.7 | inactive |
| CLEC4E | 0.92 | inactive |
| SERPINA5 | -0.6 | inactive |
| SERPINA5 | -0.56 | inactive |
| SERPINA5 | -0.19 | inactive |
| SERPINA5 | -0.07 | inactive |
| NOP14 | -1.43 | inactive |
| NOP14 | -1.22 | inactive |
| NOP14 | -1.51 | active |
| NOP14 | -1.44 | inactive |
| ASB17 | 3.8 | active |
| ASB17 | -1.33 | inactive |
| ASB17 | -0.34 | inactive |
| ASB17 | -0.28 | inactive |
| DCLRE1C | -0.5 | inactive |
| DCLRE1C | 0.75 | inactive |
| DCLRE1C | 0.03 | inactive |
| DCLRE1C | 0.15 | inactive |
| NDUFV3 | 1.06 | inactive |
| NDUFV3 | 1.19 | inactive |
| NDUFV3 | 0.86 | inactive |
| NDUFV3 | 0.87 | inactive |

Records listed so far whose target name starts with N or n (8):
| target gene | TNF reporter robust z-score | outcome |
| --- | --- | --- |
| NOP14 | -1.43 | inactive |
| NOP14 | -1.22 | inactive |
| NOP14 | -1.51 | active |
| NOP14 | -1.44 | inactive |
| NDUFV3 | 1.06 | inactive |
| NDUFV3 | 1.19 | inactive |
| NDUFV3 | 0.86 | inactive |
| NDUFV3 | 0.87 | inactive |

More results:
| target gene | TNF reporter robust z-score | outcome |
| --- | --- | --- |
| PITPNB | 0.6 | inactive |
| PITPNB | 0.94 | inactive |
| PITPNB | 1.62 | inactive |
| PITPNB | 0.82 | inactive |
| CLEC18A | 0.08 | inactive |
| CLEC18A | 1.08 | inactive |
| CLEC18A | 1.33 | inactive |
| CLEC18A | -0.03 | inactive |
| RTEL1 | 0.72 | inactive |
| RTEL1 | 5.51 | active |
| RTEL1 | -0.9 | inactive |
| RTEL1 | 1.67 | inactive |
| LCMT2 | -0.65 | inactive |
| LCMT2 | 1.88 | inactive |
| LCMT2 | 1.4 | inactive |
| LCMT2 | 1.05 | inactive |
| SLC44A5 | -0.87 | inactive |
| SLC44A5 | 2.52 | inactive |
| SLC44A5 | 2.11 | inactive |
| SLC44A5 | -0.14 | inactive |
| STX17 | -1.3 | inactive |
| STX17 | -0.89 | inactive |
| STX17 | -1.54 | active |
| STX17 | -1.18 | inactive |
| ABCD2 | 0.24 | inactive |
| ABCD2 | 1.96 | inactive |
| ABCD2 | -0.19 | inactive |
| ABCD2 | -1.56 | active |
| CADPS | -0.27 | inactive |
| CADPS | -0.87 | inactive |
| CADPS | -1.84 | active |
| CADPS | -1.05 | inactive |
| H2AC17 | -0.54 | inactive |
| H2AC17 | 0.08 | inactive |
| H2AC17 | 0.17 | inactive |
| H2AC17 | 0.38 | inactive |
| SNURF | -1.1 | inactive |
| SNURF | -0.8 | inactive |
| SNURF | -1.04 | inactive |
| SNURF | -1.16 | inactive |
| WDR31 | -1.54 | active |
| WDR31 | -1.48 | inactive |
| WDR31 | -1.65 | active |
| WDR31 | -1.61 | active |
| ARL14EP | 2.41 | inactive |
| ARL14EP | 2.76 | inactive |
| ARL14EP | 1.84 | inactive |
| ARL14EP | 4.65 | active |
| SORBS2 | 0.38 | inactive |
| SORBS2 | 0.27 | inactive |
| SORBS2 | 0.78 | inactive |
| SORBS2 | 0.79 | inactive |
| ATP2C2 | -0.29 | inactive |
| ATP2C2 | 0.41 | inactive |
| ATP2C2 | -0.37 | inactive |
| ISCA1 | 0.38 | inactive |
| ISCA1 | 1.03 | inactive |
| ISCA1 | 0 | inactive |
| ISCA1 | 0.58 | inactive |
| LARS1 | -0.53 | inactive |
| LARS1 | -0.03 | inactive |
| LARS1 | 0.1 | inactive |
| LARS1 | -0.41 | inactive |
| GNPNAT1 | -0.42 | inactive |
| GNPNAT1 | -0.7 | inactive |
| GNPNAT1 | -0.78 | inactive |
| GNPNAT1 | -0.23 | inactive |
